Tested on: parental, vehicle and resistant cells
Details: 600 nM I-BET 151, 48 hours; two-tailed Student's t-test; FIG. 2A

SMILES: COc1cc2c(cc1-c1c(C)noc1C)ncc1[nH]c(=O)n([C@H](C)c3ccccn3)c12 [I-BET, I-BET 151]
- amount of intracellular and extracellular drug, resistant versus parental and vehicle cells: no significance difference
